According to the supplement of paper PMC8104966:
± gives the standard deviation of the averaged measurements. Some of the results follow. Single values are uncertain here, since repeats match poorly.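 U2OS cells carrying ACE2 were mixed with U2OS cells carrying full-length spike, and fusion was scored by imaging as the share of nuclei showing both cell types' fluorescent markers. A compound counts as an inhibitory hit when it is non-toxic and its fusion z-score falls below -3, meaning more than three standard deviations below the plate's DMSO wells.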

system: U2OS ACE2 x SARS-CoV-2 spike co-culture; assay: cell-cell fusion (fraction fused) z-score vs plate DMSO control; higher = more fusion; settings: 30 µM; 5 h; toxicity class: non-toxic, passed QC

| Structure (SMILES) | cell-cell fusion (z-score) |
| --- | --- |
| CCC(C)[C@H]1O[C@]2(CC[C@@H]1C)C[C@@H]1C[C@@H](C/C=C(\C)[C@@H](OC3C[C@H](OC)C(O[C@H]4C[C@H](OC)[C@@H](O)[C@H](C)O4)[C@H](C)O3)[C@@H](C)/C=C/C=C3\CO[C@@H]4[C@H](O)C(C)=C[C@@H](C(=O)O1)[C@]34O)O2 (stereo partly drawn) | active: -18 |
| COCCCN1CCC(NC(=O)c2cc(Cl)c(N)c3c2OCC3)CC1 [Prucalopride] | inactive: 1.84 |
| CC(N)(C(=O)O)c1ccc(C(=O)O)cc1 (racemic) [(±)-alpha-Methyl-4-carboxyphenylglycine] | inactive: 3.53 |
| C[C@@H](O)[C@H]1C(=O)N2C(C(=O)O)=C(SCCNC=N)C[C@H]12 [Imipenem monohydrate] | inactive: 1.89 |
| CCc1cnn2c(NCc3ccc[n+]([O-])c3)cc(N3CCCC[C@H]3CCO)nc12 | inactive: 1.27 |
| N#Cc1ccc(C(c2ccc(C#N)cc2)n2cncn2)cc1 | inactive: 1.27 |
| CN(Cc1cnc2nc(N)nc(N)c2n1)c1ccc(C(=O)N[C@@H](CCC(=O)O)C(=O)O)cc1 [Methotrexate] | inactive: 2.09 |
| Nc1nc(N)c2nc(-c3cccc(O)c3)c(-c3cccc(O)c3)nc2n1 | inactive: 2.1 |
| CC(CN(C)C)CN1c2ccccc2CCc2ccccc21.O=C(O)/C=C\C(=O)O (stereo not drawn) [Trimipramine maleate] | inactive: 0.258 |
| CN(C)C(=O)c1cc2cnc(Nc3ccc(N4CCNCC4)cn3)nc2n1C1CCCC1 [Ribociclib] | inactive: 3.79 |
| CCCc1nc(C(C)(C)O)c(C(=O)O)n1Cc1ccc(-c2ccccc2-c2nn[nH]n2)cc1 [Olmesartan] | inactive: 3.69 |
| COC1=C[C@@H]2[C@@H]3Cc4ccc(OC)c(O)c4[C@]2(CCN3C)CC1=O | inactive: 3.26 |
| Cn1nnc2c(C(N)=O)ncn2c1=O [Temozolomide] | inactive: 2.11 |
| CCN(Cc1cccc(S(=O)(=O)[O-])c1)c1cccc(C(=C2C=CC(=[N+](CC)Cc3cccc(S(=O)(=O)[O-])c3)C=C2)c2ccc(O)cc2S(=O)(=O)[O-])c1.[Na+].[Na+] | inactive: 2.8 |
| Cl.c1ccc2c(c1)CCCC2C1=NCCN1 (stereo not drawn) [Tetrahydrozoline hydrochloride] | inactive: 1.77 |
| Cl.c1ccc2c(c1)CCCC2C1=NCCN1 (stereo not drawn) [Tetrahydrozoline HCl] | inactive: 2.62 |
| CCOC(=O)C1=C(C)NC(C)=C(C(=O)OCC)C1c1c(F)c(F)c(F)c(F)c1F [Nemadipine-A] | inactive: 2.81 |
| O=C(CCSCc1ccco1)NNC(=O)N1Cc2ccccc2Oc2ccc(Cl)cc21 | inactive: 1.64 |
| CN(CCC(Oc1ccc(C(=O)c2nccs2)cc1)c1ccc(Cl)cc1)CC(=O)O.Cl.O (stereo not drawn) | inactive: 2.25 |
| O=C(NC[C@H]1CN(c2ccc(N3CCOCC3=O)cc2)C(=O)O1)c1ccc(Cl)s1 [Rivaroxaban] | inactive: 0.193 |
| COc1cc2nccc(Oc3ccc(NC(=O)NC4CC4)c(Cl)c3)c2cc1C(N)=O [E7080 (Lenvatinib)] | inactive: 2.61 |
| COc1cc2nccc(Oc3ccc(NC(=O)NC4CC4)c(Cl)c3)c2cc1C(N)=O [Lenvatinib (E7080)] | inactive: -1.47 |
| Nc1ccc(S(=O)(=O)Nc2ccccn2)cc1 [Sulfapyridine] | inactive: 1.94 |

| Structure (SMILES) | cell-cell fusion (z-score) |
| --- | --- |
| C#C[C@]1(OC(C)=O)CC[C@H]2[C@@H]3CCC4=C[C@@H](OC(C)=O)CC[C@@H]4[C@H]3CC[C@@]21C [Ethynodiol diacetate] | inactive: 0.111 |
| CN(C[C@@H]1COCCO1)S(=O)(=O)Nc1ccc2ccc3ncc(-c4cnn(C)c4)cc3c(=O)c2c1 | inactive: -2.15 |
| CC(C)[C@H]1CC[C@H](C(=O)N[C@H](Cc2ccccc2)C(=O)O)CC1 [Nateglinide] | inactive: 2.13 |
| CC(O)(CS(=O)(=O)c1ccc(F)cc1)C(=O)Nc1ccc(C#N)c(C(F)(F)F)c1 (stereo not drawn) [Bicalutamide] | inactive: 3.52 |
| Nc1nc2ccc(Cl)cc2n2c(-c3ccccc3)nnc12 | inactive: 1.64 |
| CC(=O)O[C@H]1CC[C@@]2(C)C(=CCC3C2CC[C@@]2(C)C3C[C@H]3O[C@]32C(C)=O)C1 (stereo partly drawn) | inactive: 0.803 |
| CCCN(CCC)S(=O)(=O)c1ccc(C(=O)O)cc1 | inactive: -0.54 |
| COC(=O)[C@H](CCCNC(=N)N)NS(=O)(=O)c1ccc(C)cc1 | inactive: 2.73 |
| Cl.Cl.N=C(NCCCCCCNC(=N)NC(=N)Nc1ccc(Cl)cc1)NC(=N)Nc1ccc(Cl)cc1 | active: -7.83 |
| C[C@](N)(Cc1ccc(O)c(O)c1)C(=O)O | inactive: 0.967 |
| Nc1ccc(C(=O)Nc2cccc(-c3nc(N4CCOCC4)c4oc5ncccc5c4n3)c2)cn1 | inactive: 1.34 |
| Cc1ccc(Cl)c(Nc2ccccc2C(=O)[O-])c1Cl.[Na+] [Meclofenamate Sodium] | inactive: 2.6 |
| CC[C@H]1OC(=O)[C@H](C)[C@@H](O[C@H]2C[C@@](C)(OC)[C@@H](O)[C@H](C)O2)[C@H](C)[C@@H](O[C@@H]2O[C@H](C)C[C@H](N(C)C)[C@H]2O)[C@](C)(O)C[C@@H](C)CN(C)[C@H](C)[C@@H](O)[C@]1(C)O.O.O [Azithromycin] | inactive: 2.26 |
| CC(O)(P(=O)([O-])O)P(=O)([O-])O.[Na+].[Na+] [Sodium etidronate] | inactive: 2.71 |
| O=C1CCC(N2C(=O)c3ccccc3C2=O)C(=O)N1 (racemic) [(±)-Thalidomide] | inactive: 1.96 |
| CC(C)OC(=O)C(C)(C)Oc1ccc(C(=O)c2ccc(Cl)cc2)cc1 [Fenofibrate] | inactive: 4.01 |
| Cl.N#Cc1ccc2[nH]cc(CCCCN3CCN(c4ccc5oc(C(N)=O)cc5c4)CC3)c2c1 [Vilazodone HCl] | inactive: 1.22 |
| NC(CCCP(=O)(O)O)C(=O)O (racemic) [(±)-2-Amino-5-phosphonopentanoic acid] | inactive: 1.13 |
| Nc1ccc(S(N)(=O)=O)cc1 [Sulfanilamide] | inactive: 3.41 |
| CC(C)NC[C@H](O)COc1cccc2[nH]ccc12 [S(-)-Pindolol] | inactive: 2.31 |
| COc1cc(Nc2ncc(F)c(Nc3ccc4c(n3)NC(=O)C(C)(C)O4)n2)cc(OC)c1OC [R406 (free base)] | inactive: 0.65 |
| Nc1ccc(C(=O)O)c(O)c1 [Aminopar] | inactive: 3.85 |
| COc1c(O)cccc1O | inactive: 2.11 |

Look-ups from the entries so far.
Value of Cl.N#Cc1ccc2[nH]cc(CCCCN3CCN(c4ccc5oc(C(N)=O)cc5c4)CC3)c2c1 [Vilazodone HCl] under cell-cell fusion (z-score): inactive: 1.22
Value of Nc1nc2ccc(Cl)cc2n2c(-c3ccccc3)nnc12 under cell-cell fusion (z-score): inactive: 1.64

(cont.)

| Structure (SMILES) | cell-cell fusion (z-score) |
| --- | --- |
| C[C@H]1CC2C3CCC4=CC(=O)C=C[C@]4(C)[C@@]3(F)[C@@H](O)C[C@]2(C)[C@@]1(O)C(=O)COP(=O)([O-])[O-].[Na+].[Na+] (stereo partly drawn) | inactive: 3.26 |
| N=C(NCCC[C@H](N)C(=O)O)N[N+](=O)[O-] | inactive: 1.83 |
| C[N+](C)(C)CCCCCCCCCC[N+](C)(C)C.[Br-].[Br-] [Decamethonium bromide] | inactive: 2.08 |
| COc1ccc([C@@H]2Sc3ccccc3N(CCN(C)C)C(=O)[C@@H]2OC(C)=O)cc1.Cl [Diltiazem hydrochloride] | inactive: 0.748 |
| Cl.NCC(=O)c1ccccc1 | inactive: 1.15 |
| CC1OC1P(=O)([O-])[O-].[Na+].[Na+] (stereo not drawn) [Phosphomycin disodium] | inactive: 1.18 |
| CCCCCCCCCCC[C@@H](C[C@@H]1OC(=O)[C@H]1CCCCCC)OC(=O)[C@H](CC(C)C)NC=O [Orlistat] | inactive: 3.44 |
| Cl.Cl.Fc1ccc(C(OCCN2CCN(CCCc3ccccc3)CC2)c2ccc(F)cc2)cc1 | inactive: -2.75 |
| CN[C@@H](Cc1c[nH]c2ccccc12)C(=O)O | inactive: 1.72 |
| CC(=O)OCC(CCn1cnc2cnc(N)nc21)COC(C)=O [Famciclovir] | inactive: 1.42 |
| CN1CCc2cccc3c2C1Cc1ccc(O)c(O)c1-3.Cl (stereo not drawn) | -3.46 ± 2.3 |
| O=C([O-])c1cc(=O)c2c(OCC(O)COc3cccc4oc(C(=O)[O-])cc(=O)c34)cccc2o1.[Na+].[Na+] [Sodium cromoglycate] | inactive: 1.46 |
| O=C1C(SCCO)=C(SCCO)C(=O)c2ccccc21 | active: -7.1 |
| CCOc1nc2cccc(C(=O)O)c2n1Cc1ccc(-c2ccccc2-c2nnn[nH]2)cc1 | inactive: 1.64 |
| COc1c(C)c2c(c(O)c1C/C=C(\C)CCC(=O)O)C(=O)OC2 [Mycophenolic (Mycophenolate)] | inactive: 1.85 |
| COc1ccc2cc([C@H](C)C(=O)[O-])ccc2c1.[Na+] [Naproxen sodium] | inactive: 1.85 |
| COc1cc(O)c(C(C)=O)c(O)c1 | inactive: 2.07 |
| CO/N=C(\C(=O)NC1C(=O)N2C(C(=O)OCOC(=O)C(C)(C)C)=C(/C=C\c3scnc3C)CSC12)c1csc(N)n1 (stereo not drawn) | inactive: 2.13 |
| COc1ccc2cc([C@H](C)C(=O)O)ccc2c1 | inactive: -0.318 |
| OCc1ccc(-c2nn(Cc3ccccc3)c3ccccc23)o1 | inactive: 1.58 |
| CC1=CC2C(CC1=O)C(C)=CCC2C(C)C (stereo not drawn) | inactive: 2.2 |
| CC(C)CC(NP(=O)([O-])O[C@@H]1O[C@@H](C)[C@H](O)[C@@H](O)[C@H]1O)C(=O)NC(Cc1c[nH]c2ccccc12)C(=O)[O-].[Na+].[Na+] (stereo partly drawn) [Phosphoramidon disodium] | active: -5.72 |
